The experiment concerns the target MS-GAPDH-H: recombinant M.tb H37Rv GAPDH with a C-terminal 8XHis tag, expressed in M. smegmatis (the (Mycobacterium tuberculosis H37Rv) (UniProt P9WN83)). Nature of the experiment: Ni-NTA co-purification analysed by 2D gel electrophoresis.

Amino acid sequences for entries named in this document (tags omitted).
UniProt P9WN83: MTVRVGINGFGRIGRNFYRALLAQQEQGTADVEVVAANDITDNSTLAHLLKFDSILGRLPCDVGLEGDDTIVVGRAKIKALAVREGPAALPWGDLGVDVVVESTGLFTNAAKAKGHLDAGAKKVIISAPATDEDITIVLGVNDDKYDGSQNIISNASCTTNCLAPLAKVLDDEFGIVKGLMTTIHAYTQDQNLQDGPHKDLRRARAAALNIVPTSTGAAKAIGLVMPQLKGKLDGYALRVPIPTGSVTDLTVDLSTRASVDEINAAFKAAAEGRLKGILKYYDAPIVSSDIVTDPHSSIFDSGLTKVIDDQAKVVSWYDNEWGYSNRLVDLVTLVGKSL
UniProt A0QWW2: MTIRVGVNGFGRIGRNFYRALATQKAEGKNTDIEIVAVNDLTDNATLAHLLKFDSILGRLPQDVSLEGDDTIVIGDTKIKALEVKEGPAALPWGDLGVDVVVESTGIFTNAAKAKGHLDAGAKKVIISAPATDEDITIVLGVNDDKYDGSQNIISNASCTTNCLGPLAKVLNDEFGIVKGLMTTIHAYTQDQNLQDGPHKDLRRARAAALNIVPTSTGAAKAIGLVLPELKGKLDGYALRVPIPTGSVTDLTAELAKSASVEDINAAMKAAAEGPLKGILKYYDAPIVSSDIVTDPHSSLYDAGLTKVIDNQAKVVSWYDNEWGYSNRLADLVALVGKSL

No constants are given. Whether binding was seen depends on the method and setting. Some binding calls cover weakened binding; strength is not graded here.

This note sets out measurements from paper PMC4982137, “Mycobacterium tuberculosis H37Ra: a surrogate for the expression of conserved, multimeric proteins of M.tb H37Rv” (Microbial Cell Factories, 2016).

On to “native M. smegmatis GAPDH (from UniProt A0QWW2 1-340) (enzyme)”, for which the binding entry is on record as “binds”.
